# The other results are listed elsewhere or left out.
# Biological target: T1, OsSMF1 (Oryza sativa, UniProt Q6ZLB0 1-436)
# T1 sequence: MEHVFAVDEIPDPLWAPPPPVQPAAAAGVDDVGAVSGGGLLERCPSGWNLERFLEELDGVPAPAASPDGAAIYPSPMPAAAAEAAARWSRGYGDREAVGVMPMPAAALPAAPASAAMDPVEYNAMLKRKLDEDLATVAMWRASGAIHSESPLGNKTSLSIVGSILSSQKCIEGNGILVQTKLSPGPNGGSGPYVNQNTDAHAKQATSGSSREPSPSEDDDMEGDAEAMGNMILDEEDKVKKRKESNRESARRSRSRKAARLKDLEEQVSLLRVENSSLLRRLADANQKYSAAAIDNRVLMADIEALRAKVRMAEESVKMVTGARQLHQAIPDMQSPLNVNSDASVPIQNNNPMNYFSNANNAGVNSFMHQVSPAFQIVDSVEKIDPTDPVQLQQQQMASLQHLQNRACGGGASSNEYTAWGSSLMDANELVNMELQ
# Experiment: protein-binding microarray (RPBM); PBS, 2% BSA, 51.3 ng/ul salmon testes DNA, 50 uM zinc acetate, 200 nM TF, 25 C, 1 h; high values mean tight binding
# Conditions: protein: recombinant; tags: N-terminal polyhistidine and DsRed monomer fusion (pET32a); chain copies: 2; label: CyDye5-dUTP incorporated in the synthesized complementary strand; 3' TTTTT single-stranded linker to array surface; dsDNA, one strand shown
# Outline: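 Binding signal is reported as fluorescence intensity per feature (arbitrary units) from an Axon 4000B scanner. Incubation used 200 nM of each Ni–NTA-purified, N-terminally polyhistidine- and DsRed-fused transcription factor from E. coli BL21-CodonPlus on a double-stranded custom Agilent array for 1 h at 25 °C, with 50 µM zinc acetate in the buffer, followed by washing.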
row,Sequence,binding signal
1,GTTGACCCATGTCACCACCCTAGCCACCCAATCGACCTTCCGGAGTCACCTAGTGCAG,3190 fluorescence intensity (a.u.)
2,GATCGCGCTCCCGGCATCTAGCTGGCTCCAATCCGTTGCACGGAGTCACCTAGTGCAG,3970 fluorescence intensity (a.u.)
3,TTTGTGGTTGGAGGTTATGAATCATACTCGAGGCATAGTTCGGAGTCACCTAGTGCAG,22000 fluorescence intensity (a.u.)
4,TACAGATGCCCGTCATGACTCATGATCCGTTTGGATCAAACGGAGTCACCTAGTGCAG,4140 fluorescence intensity (a.u.)
5,GGCGGCGGCGGAGGAGGAGGCGGATGTGGCGGCGGAGAGCCGGAGTCACCTAGTGCAG,3900 fluorescence intensity (a.u.)
6,TTTCCAATCAATACATTGCCAATTTGCCATGCCCCGCGCGCGGAGTCACCTAGTGCAG,4990 fluorescence intensity (a.u.)
7,TTCTTCCTCGCTTGTGGCCCTGCCAGCTCAGTCTGGACCGCGGAGTCACCTAGTGCAG,7410 fluorescence intensity (a.u.)
8,ACGGACATTTTGTCTATGACGCGGTAAGAGGGAGGGAAAACGGAGTCACCTAGTGCAG,4930 fluorescence intensity (a.u.)
9,TTGCAGCGTGCAGCTGACTCTACCGGTTAAAGGCATGTACCGGAGTCACCTAGTGCAG,4590 fluorescence intensity (a.u.)
10,AATATTATTGACTTGTAGGACATGACGCTTGACTGATAATCGGAGTCACCTAGTGCAG,3930 fluorescence intensity (a.u.)
11,ACGCTCCCACGGGAGGTGGCAGTTGACGTCGTCCCGTCATCGGAGTCACCTAGTGCAG,4380 fluorescence intensity (a.u.)
12,TAACTCAGCCGACAGACGCATTGCTTACACACGTCGTAACCGGAGTCACCTAGTGCAG,3720 fluorescence intensity (a.u.)
13,GTCAGCTAGCGTACGTCTAGACTAGACCGCGTAATAACAGCGGAGTCACCTAGTGCAG,3170 fluorescence intensity (a.u.)
14,AGCCTGACATGTTCAGGCCTAGTCATATAAATCCAATTGTCGGAGTCACCTAGTGCAG,6160 fluorescence intensity (a.u.)
15,CACTATGACCCGTGGCAATGAATTCCCCAATCAGCAACTGCGGAGTCACCTAGTGCAG,3250 fluorescence intensity (a.u.)
16,TGTGGCGCAAACTAACTATATTGTGACTAATCATGAGTTTCGGAGTCACCTAGTGCAG,4700 fluorescence intensity (a.u.)
17,CAACAAGAAGCGGAAGCTCCCCGAGAAGCAGCTCCCCGACCGGAGTCACCTAGTGCAG,16100 fluorescence intensity (a.u.)
18,GAGAGATAAGGGCAACTACACACGTCGGTTGTGCTGGTAGCGGAGTCACCTAGTGCAG,4570 fluorescence intensity (a.u.)
19,TTAGTTTTCCGATGGCTATGTATGCATGCGCACGCGGAGCCGGAGTCACCTAGTGCAG,3260 fluorescence intensity (a.u.)
20,TATGGGAGAAAGGGAGCTGCCAATTGCCATGCTATTTGTGCGGAGTCACCTAGTGCAG,3340 fluorescence intensity (a.u.)
21,CTCCCACACCCTCCCGCTCAGCTCCGCCGCGGCACCGCCACGGAGTCACCTAGTGCAG,3940 fluorescence intensity (a.u.)
22,GTTGTGTTTTGGAGACTGTGTCGCTGTCCTAAACGACTTCCGGAGTCACCTAGTGCAG,3660 fluorescence intensity (a.u.)
23,CGCAATCCGCCGCTTGCCTTCGCCGCCGCCCGCGCTGAATCGGAGTCACCTAGTGCAG,3450 fluorescence intensity (a.u.)
24,AACTCTCTCCGCTCGCACGCCGTTCCATATATAAGACCACCGGAGTCACCTAGTGCAG,3690 fluorescence intensity (a.u.)
25,GAGGATAGGGATGTCGTCAGCGTTGGAGACAATAGTCTTGCGGAGTCACCTAGTGCAG,5720 fluorescence intensity (a.u.)
26,CTCTTCCTCTCCACTTCGGTGCAGGATCTGGAGCAGTGTTCGGAGTCACCTAGTGCAG,3300 fluorescence intensity (a.u.)
27,TGCCAGACTGACAGTCACTTGTACACGCAGTATAATATCCCGGAGTCACCTAGTGCAG,3160 fluorescence intensity (a.u.)

row,Sequence,binding signal
1,ATATTTTATAACATTTTCAAATAAACCAATTTCTACCTTTCGGAGTCACCTAGTGCAG,17900 fluorescence intensity (a.u.)
2,GTGGGCCATCTGACAGTGCATACAGGAACTTTCCCCTTCTCGGAGTCACCTAGTGCAG,4930 fluorescence intensity (a.u.)
3,CGATGTGAAGCAGATGTGTCAAATGGGCACCCTTGCGGCCCGGAGTCACCTAGTGCAG,3370 fluorescence intensity (a.u.)
4,CAACAGATTAATGACATGTCAACAGCTGCATGCTCTAGCTCGGAGTCACCTAGTGCAG,5080 fluorescence intensity (a.u.)
5,AACTTTCATAAGCAAAATATCAAACGACTTATAATTTTATCGGAGTCACCTAGTGCAG,26300 fluorescence intensity (a.u.)
6,AATTTCCTCACATCGACCGTTGACTCATCCACTTCACTGCCGGAGTCACCTAGTGCAG,5700 fluorescence intensity (a.u.)
7,AATCCTACTGCCTCCGTCCCAAAATATAATAGCTTTTAGCCGGAGTCACCTAGTGCAG,3530 fluorescence intensity (a.u.)
8,GGAGTGTCTCTATTGCCGCTGATGGGTTGTATGACGCTCGCGGAGTCACCTAGTGCAG,4590 fluorescence intensity (a.u.)
9,CCATGTTGAAATTAATGGATCGATGTTACGGTAGGATTAGCGGAGTCACCTAGTGCAG,3190 fluorescence intensity (a.u.)
10,TAGCGCCACATCACTTGATAAGATAGGAATTTATTCTTGCCGGAGTCACCTAGTGCAG,6250 fluorescence intensity (a.u.)
11,ATTCCTTAAAATACTCTCAAGCTGCCACGTGGCGCTCTAACGGAGTCACCTAGTGCAG,31300 fluorescence intensity (a.u.)
12,GAATAAATATCTCTATTCCTGCGTCATCCCCATCTCTCGCCGGAGTCACCTAGTGCAG,6550 fluorescence intensity (a.u.)
13,ATTCCCCGCCTTGTTTCCCTCTTTCCACGTCGCGAGAGGCCGGAGTCACCTAGTGCAG,3600 fluorescence intensity (a.u.)
14,GTGCAAGCTAGCTTCTCGCTCTCGCGCCTATAAATTGGGCCGGAGTCACCTAGTGCAG,3450 fluorescence intensity (a.u.)
15,AGGGTGTGTACTTCGGGAGCAGTATGAAGTATGTGACGTGCGGAGTCACCTAGTGCAG,31400 fluorescence intensity (a.u.)
16,GATGTCGTATTACGTAGACCCTCGTTCCAACGTACCCCAACGGAGTCACCTAGTGCAG,4210 fluorescence intensity (a.u.)
17,GCTCGCGTAATCACGTGTCCGCCTGGTGTATGTCCCTCTCCGGAGTCACCTAGTGCAG,4700 fluorescence intensity (a.u.)
18,TATGGTGAGTCTCTTCTCGTGTTCCTTTTGACTTGTAGATCGGAGTCACCTAGTGCAG,3660 fluorescence intensity (a.u.)
19,GATGCGTGGCGTGGCGTGGCCGCGTGACAGTGCGAGTGATCGGAGTCACCTAGTGCAG,6320 fluorescence intensity (a.u.)
20,AACCTCCCCAACGGCAGGCTCATCATACGTGCGTGCTGGACGGAGTCACCTAGTGCAG,3810 fluorescence intensity (a.u.)
21,CTCGTTTTGCGTGAAACACTTAATCTTCGTCTTCAGGACACGGAGTCACCTAGTGCAG,3280 fluorescence intensity (a.u.)
22,TTCTCACATCACGTCACTAACCTAACAACCCTATGACGTGCGGAGTCACCTAGTGCAG,3840 fluorescence intensity (a.u.)
23,GAGTCGTTATCTGCATTGATGTGTCTCCTGACTCCTGAGACGGAGTCACCTAGTGCAG,3840 fluorescence intensity (a.u.)
24,AGTTAAACTTTCAATTTTGACGTGGAACTAAACACAGCCACGGAGTCACCTAGTGCAG,6800 fluorescence intensity (a.u.)
25,GCCCTTCACCCTGGCGAACAGCGTCACGGCTCGCCGGACGCGGAGTCACCTAGTGCAG,4140 fluorescence intensity (a.u.)
26,TTACTCATATGAGATGGTGATGGGTCGTGGCGTGGGTCCACGGAGTCACCTAGTGCAG,3310 fluorescence intensity (a.u.)
27,CGAGAGGCTTGGGAAGAGATGAGGTTGGCACGTGTGAACGCGGAGTCACCTAGTGCAG,4250 fluorescence intensity (a.u.)

# Rewritten with bars between the fields: entries from further up
row | Sequence | binding signal
6 | AATTTCCTCACATCGACCGTTGACTCATCCACTTCACTGCCGGAGTCACCTAGTGCAG | 5700 fluorescence intensity (a.u.)
8 | GGAGTGTCTCTATTGCCGCTGATGGGTTGTATGACGCTCGCGGAGTCACCTAGTGCAG | 4590 fluorescence intensity (a.u.)
11 | ATTCCTTAAAATACTCTCAAGCTGCCACGTGGCGCTCTAACGGAGTCACCTAGTGCAG | 31300 fluorescence intensity (a.u.)
22 | TTCTCACATCACGTCACTAACCTAACAACCCTATGACGTGCGGAGTCACCTAGTGCAG | 3840 fluorescence intensity (a.u.)

# — paper PMC7819943, “Rice protein-binding microarrays: a tool to detect cis-acting elements near promoter regions in rice”
